Measured data: PubChem BioAssay AID1671195 (Yale University, 2021)

- Test: 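Regulators of LDL receptor activity judged by labelled LDL uptake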 (primary screen)
- Cells: human Huh7 hepatoma cells
- Knock-down reagent: siRNA pool against human genes, 18 nM
- Duration: about 2 to 2.5 days of knockdown, then 8 h LDL uptake
- Treatment: DiI-labelled LDL at 30 µg/ml for 8 h, in lipoprotein-deficient serum medium
- Measured: 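Per-cell DiI-LDL intensity by automated imaging; well means scaled to the plate median and given as a robust z-score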
- Direction: robust z-score: higher = more LDL uptake after knockdown
- Active means: 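Active when two or more replicates show a robust z-score above 2 or below -2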
This is one part, drawn at random, of about 22,000 reagents tested. About 1,510 of them (6.9%) count as active. 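Active includes knockdowns raising or lowering LDL uptake; positive z-scores mean more uptake, negative mean less.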 The numbers tell different reagents against one gene apart.

gene symbol,reagent,"robust z-score, replicate 1","robust z-score, replicate 2","robust z-score, replicate 3",Call
LINC00928,1,1.38,0.606,0.207,inactive
LOC389814 (retired record),1,0.628,0.53,0.493,inactive
LOC442400 (retired record),1,-0.506,-0.429,0.0259,inactive
MAGOH,1,2.37,1.34,0.853,inactive
PRICKLE2,1,2.68,2.33,3.12,active
DUX4L8,1,1.44,1.27,0.373,inactive
GCNT3,1,-0.181,0.907,-0.122,inactive
MEX3B,1,2.51,2.39,1.67,active
SECTM1,1,-0.779,-0.276,-2.03,inactive
UBE2D4,1,0.715,-0.495,-1.1,inactive
LINC00652,1,2,0.085,1.56,inactive
CADPS2,1,0.157,0.157,-0.0277,inactive
NEMF,1,-1.47,-1.13,-1.46,inactive
HMGB3,1,-0.8,-1.02,-1.25,inactive
RBM47,1,-0.159,-0.803,0.463,inactive
ABCB8,1,0.516,-0.584,-0.0528,inactive
DDX1,1,0.531,-2.51,-2.22,active
HGFAC,1,-0.841,0.55,-1.29,inactive
FAM177B,1,-1.07,-1.15,-1.26,inactive
CDK2AP2,1,-1.67,-0.805,1.68,inactive
GMNN,1,1.16,-0.203,-2.07,inactive
LRFN2,1,1.95,3.48,2.56,active
JMJD4,1,1.19,1.5,0.816,inactive
FIRRM,1,-1.35,-0.652,-1.96,inactive
MISO1,1,0.359,0.631,0.499,inactive
EYS,1,-0.109,0.0457,-0.309,inactive
EYS,2,-0.169,-0.969,-0.788,inactive
PRSS27,1,0.0885,1.05,0.233,inactive
LINC00511,1,-0.137,0.24,0.53,inactive
CASP9,1,-0.0578,1.05,0.587,inactive
EMC3,1,-0.29,-2.18,-0.571,inactive
PAPOLA,1,1.99,1.32,2.23,active
CLASP2,1,0.127,0.0477,0.81,inactive
LINC03006,1,-0.152,-0.535,0.00984,inactive
NCAPH,1,1.57,-0.929,1.82,inactive
TMEM8B,1,2.37,2.28,-1.06,active
DRGX,1,-0.482,-0.739,-0.394,inactive
EQTN,1,0.578,0.909,0.252,inactive
DYNAP,1,1.98,1.59,1.95,inactive
CRH,1,2.35,2.35,3.87,active
MMP13,1,1.59,2.09,4.23,active
NUS1,1,-0.937,-0.765,-0.507,inactive
ANGEL1,1,0.068,-0.152,-0.901,inactive
VTI1A,1,0.0419,0.794,-0.0264,inactive
VTI1A,2,-0.101,-1.29,0.0708,inactive

Only “robust z-score, replicate 3” (8 entries from above):
MISO1: 0.499
EYS #1: -0.309
EYS #2: -0.788
PRSS27: 0.233
LINC00511: 0.53
CASP9: 0.587
EMC3: -0.571
PAPOLA: 2.23

Continued.
gene symbol,reagent,"robust z-score, replicate 1","robust z-score, replicate 2","robust z-score, replicate 3",Call
DGKQ,1,-0.2,-0.575,-1.23,inactive
YWHAEP7,1,1.47,1.18,1.14,inactive
PPP4R2,1,1.18,-0.21,1.1,inactive
FFAR2,1,1.37,0.632,0.926,inactive
UBE2D2,1,0.176,0.906,-0.0291,inactive
VPS4B,1,-0.408,-0.454,-0.228,inactive
EVA1A,1,0.428,0.561,0.364,inactive
WNT11,1,5.38,-0.822,-1.21,inactive
COMMD5,1,0.569,0.337,0.203,inactive
ACTL9,1,2.52,2.06,2.15,active
TF,1,0.425,0.283,0.0537,inactive
PCDHB10,1,2.18,2.4,1.86,active
ADCY2,1,0.698,0.0927,-0.0543,inactive
ARPC3,1,0.288,0.158,0.294,inactive
PLXNA3,1,0.162,-0.967,0.0465,inactive
NR6A1,1,0.465,1.1,0.777,inactive
LINC03234,1,1.84,0.97,1.26,inactive
RAPGEF3,1,-1.22,-1.51,-1.46,inactive
ATP6V1B2,1,0.718,0.457,0.898,inactive
RDH10,1,0.721,0.336,0.595,inactive
ATRAID,1,0.832,0.323,0.175,inactive
MXD1,1,0.751,0.451,0.511,inactive
WDR45B,1,-0.944,-0.999,-0.753,inactive
